# Measured values taken from PubChem BioAssay AID248 (DTP/NCI, 2004).
# The list shows only some results of the screen, not a fair sample: it is rich in T/C values a quarter to a half above the control, in often repeated tests (any T/C) and in doses without a T/C. Further doses and runs are listed elsewhere. T/C: endpoint of the treated group in % of that of the vehicle group. Some entries give survivors of the animals treated and no T/C: the source files T/C as zero there, which appears to mark a toxic dose or a test without result, not a measured value. Some doses without a T/C left all or most animals alive at the check, yet need not have been tolerated: survival well below the control is almost never listed, so the zero probably covers shortened survival too. Survivors were counted at the toxicity check, usually on the fifth day, unless a day is given; later deaths do not show. Schedules are NCI's codes, taken here to give the interval after Q, in days (D) or hours (H), and the number of doses after X. For survival time, this PubChem deposit counts one and a half times the control or more as active, and values a quarter to a half above the control carry no call in these data; other NCI protocols may use other cut-offs.
# Test system: L1210 leukemia ip in BDF1 mice, survival T/C
# Test: NCI In Vivo Anticancer Drug Screen. Data for tumor model L1210 Leukemia (intraperitoneal) in B6D2F1 (BDF1) mice
# Conditions: T/C endpoint: mean survival time, higher T/C = longer survival
# [1] = dose: 400.0 mg/kg/injection, schedule: Q04DX002 (ip), vehicle: Klucel (hydroxypropylcellulose) (HPC)
# [2] = dose: 400.0 mg/kg/injection, schedule: Q01DX001 (ip), vehicle: saline
# [3] = dose: 400.0 mg/kg/injection, schedule: Q04DX003 (ip), vehicle: saline
# [4] = dose: 300.0 mg/kg/injection, schedule: Q01DX001 (ip), vehicle: saline
# [5] = dose: 400.0 mg/kg/injection, schedule: Q04DX003 (ip), vehicle: saline with Tween-80
smiles,measurement,setting,value
O=C(Nc1ncc([N+](=O)[O-])s1)c1ccc(Cl)s1,survivor count,"dose: 25.0 mg/kg/injection, schedule: Q04DX002 (ip), vehicle: Klucel (hydroxypropylcellulose) (HPC)",1 of 3
same,survivor count,"dose: 50.0 mg/kg/injection, schedule: Q04DX002 (ip), vehicle: Klucel (hydroxypropylcellulose) (HPC)",0 of 3
same,survivor count,"dose: 100.0 mg/kg/injection, schedule: Q04DX002 (ip), vehicle: Klucel (hydroxypropylcellulose) (HPC)",0 of 3
same,survivor count,"dose: 200.0 mg/kg/injection, schedule: Q04DX002 (ip), vehicle: Klucel (hydroxypropylcellulose) (HPC)",0 of 3
same,survivor count,[1],0 of 3
CC(C)=CCC(CC=C(C)C)c1ccncc1 (tested in a mixture with another compound),survivor count,[2],3 of 6
CCCCCCP(=O)(CCCCCC)C1CCCCC1,survivor count,"dose: 100.0 mg/kg/injection, schedule: Q01DX001 (ip), vehicle: saline with Tween-80",3 of 3
same,survivor count,"dose: 400.0 mg/kg/injection, schedule: Q01DX001 (ip), vehicle: saline with Tween-80",0 of 3
Nc1nc(CBr)c(CCCCc2ccccc2)c(=O)[nH]1,survivor count,"dose: 150.0 mg/kg/injection, schedule: Q01DX001 (ip), vehicle: saline with Tween-80",1 of 6
Cc1ccc2c(ccc3nnc(C)n32)c1,survivor count,"dose: 200.0 mg/kg/injection, schedule: Q01DX001 (ip), vehicle: saline",1 of 4
same,survivor count,[2],1 of 4
CN1CCCCC1(Cc1ccccc1)Cc1ccccc1,survivor count,"dose: 200.0 mg/kg/injection, schedule: Q01DX009 (ip), vehicle: saline",3 of 6
same,survivor count,[3],0 of 6
CC1(C)N=C(N)N=C(N)N1c1ccccc1,survivor count,"dose: 50.0 mg/kg/injection, schedule: Q04DX003 (ip), vehicle: saline",2 of 6
same,survivor count,"dose: 100.0 mg/kg/injection, schedule: Q04DX003 (ip), vehicle: saline",2 of 6
same,survivor count,"dose: 200.0 mg/kg/injection, schedule: Q04DX003 (ip), vehicle: saline",0 of 6
same,survivor count,[3],0 of 6
CC1(Br)C(=O)C(O)=C(Br)C1=O (stereo not given),survivor count,[4],1 of 6
O=C(O)COc1ccc(Cl)cc1I,survivor count,[1],3 of 3
C=CCOc1ccncc1,survivor count,"dose: 100.0 mg/kg/injection, schedule: Q04DX003 (ip), vehicle: saline with Tween-80",5 of 6
same,survivor count,"dose: 200.0 mg/kg/injection, schedule: Q04DX003 (ip), vehicle: saline with Tween-80",1 of 6
same,survivor count,[5],0 of 6
COc1ccc(CNC(=O)NCCCl)cc1OC,survivor count,"dose: 400.0 mg/kg/injection, schedule: Q01DX009 (ip), vehicle: Klucel (hydroxypropylcellulose) (HPC)",0 of 6
c1ccc2cc(-c3cc4ccccc4s3)ccc2c1,T/C,"dose: 400.0 mg/kg/injection, schedule: Q01DX009 (ip), vehicle: acetone",125 % of control
CCOP(=O)(OCC)Oc1cc(C)c(C#N)c(C)c1,survivor count,"dose: 75.0 mg/kg/injection, schedule: Q01DX001 (ip), vehicle: saline",2 of 6
same,survivor count,"dose: 80.0 mg/kg/injection, schedule: Q01DX001 (ip), vehicle: saline",3 of 6
same,survivor count,"dose: 150.0 mg/kg/injection, schedule: Q01DX001 (ip), vehicle: saline",0 of 6
same,survivor count,[4],0 of 6
NC(CSC(c1ccccc1)(c1ccccc1)c1ccc(F)cc1)C(=O)O (stereo not given),T/C,"dose: 12.5 mg/kg/injection, schedule: Q01DX009 (ip), vehicle: saline",128 % of control
same,T/C,"dose: 25.0 mg/kg/injection, schedule: Q01DX009 (ip), vehicle: other",128 % of control
same,T/C,"dose: 25.0 mg/kg/injection, schedule: Q01DX009 (ip), vehicle: saline",137 % of control
same,T/C,"dose: 50.0 mg/kg/injection, schedule: Q01DX009 (ip), vehicle: other",144 % of control
same,survivor count,"dose: 100.0 mg/kg/injection, schedule: Q01DX009 (ip), vehicle: saline",2 of 6
same,survivor count,"dose: 200.0 mg/kg/injection, schedule: Q01DX009 (ip), vehicle: other",4 of 6
CCCCN(CCO)C(C#CC(C)(C)O)C(C)C (stereo not given),survivor count,[5],0 of 6
